Literature values in US12233107B2, “GHRH or analogues thereof for use in treatment of hepatic disease” (The General Hospital Corporation, priority 2019, dated 2025).
For at least one compound, name, drawing or mass did not settle the structure.

System: NASH in the general population
Conditions: cited from earlier work

In the case of CCc1ccc(CCOc2ccc(CC3SC(=O)NC3=O)cc2)nc1 (stereo not shown) [pioglitazone], the “histological features of NASH” value is given as “improve”.
